According to PubChem BioAssay AID504467 (National Center for Advancing Translational Sciences (NCATS), 2011):
Among all 330,000 compounds or so, about 7,700 (2.3%) were called active. This list was built around the results that the source calls inconclusive (neither active nor inactive); the mix of calls is not that of the screen. Calls come from the whole dose curve; as a rule, active = well fitted inhibition curve with a large enough effect; inconclusive = small, poorly fitted or top-dose-only effect, or effect the other way; inactive = flat fitted curve, though single readings scatter. Potencies beside an inconclusive call are fits to weak or partial responses and may not hold up.
Potency is the fitted concentration of half-maximal effect.

Assay: qHTS screen for small molecules that inhibit ELG1-dependent DNA repair in human embryonic kidney (HEK293T) cells expressing luciferase-tagged ELG1; note: nearly all actives have a fitted effect of over 55% in size
Conditions: HEK293T ELG1-luciferase reporter, luminescence, 16 h, DNA damage induced by 5-fluorouridine; series mostly up to 46.1 µM
Method in brief: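 DMSO vehicle served as the neutral condition. Each well held 2,000 cells given 5-fluorouridine plus compound; after 16 hr at 37 °C/5% CO2, ONE-Glo was added and luciferase measured 30 min later.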
In the case of CCCCC1(COC(=O)CCC(=O)O)C(=O)N(c2ccccc2)N(c2ccccc2)C1=O, the Potency is reported as “inactive”. With COC(=O)Nc1ccc(Oc2ccccc2)cc1 the Potency was inconclusive: 29.1 µM [activator, single point]. For CCCCNC(=S)NNC(=O)c1csc2ccccc12, the Potency was “inactive”. For COC(=O)C1(C)NC(c2ccccc2C)C2C(=O)N(c3ccccc3)C(=O)C21 (centres undefined), the Potency was “inactive”. In the case of COc1ccc(S(=O)(=O)N(C)CC(=O)NCc2cccnc2)cc1OC, the Potency is reported as “inactive”. In the case of O=C(CCN1CCCC1)Nc1ccc(Br)cc1, the Potency is reported as “inactive”. With CCN(CC)C(=O)c1[nH]cnc1C(=O)N[C@@H](CCCCNC(=O)OC(C)(C)C)C(=O)OC(C)(C)C the Potency was “inactive”. In the case of O=C(Nc1ccccc1N1CCCCC1)c1cccs1, the Potency is reported as “inactive”. For CN(C(=O)c1cccc(NC(=O)c2ccco2)c1)c1ccccc1, the Potency was inconclusive: 0.708 µM [inhibitor, full curve, poor fit]. For CCn1c(Oc2ccccc2)nc2c1c(=O)n(C)c(=O)n2C, the Potency was inconclusive: 11.2 µM [inhibitor, partial curve, poor fit]. In the case of O=C(Nc1nc2c(F)c(F)c(F)cc2s1)c1ccco1, the Potency is reported as inconclusive: 10.3 µM [activator, partial curve]. In the case of COc1ccc(NS(=O)(=O)c2cccc(C(=O)N3CCN(C(=O)c4ccco4)CC3)c2)cc1, the Potency is reported as inconclusive: 18.3 µM [inhibitor, single point]. In the case of Cc1ccc(F)cc1NC(=O)N1CCCN(c2ccc(C(F)(F)F)cn2)CC1, the Potency is reported as active: 5.17 µM. In the case of CCNS(=O)(=O)c1ccc(NC(=O)Cn2cc([N+](=O)[O-])cn2)cc1, the Potency is reported as inconclusive: 16.4 µM [activator, partial curve, poor fit]. With COc1ccc(/C=N/NC(=O)c2ccc3nc[nH]c3c2)cc1OC the Potency was “inactive”. With COc1ccc2occ(C(=O)c3ccc(N)cc3)c2c1 the Potency was inconclusive: 9.2 µM [activator, partial curve]. In the case of CCOc1ccccc1N1CCN(C(=O)Nc2cccc(Cl)c2)CC1, the Potency is reported as inconclusive: 29.1 µM [inhibitor, single point]. For CCCCn1c(N)c(N(CCOC)C(=O)c2ccc3c(c2)C(=O)N(c2cc(C)ccc2C)C3=O)c(=O)[nH]c1=O, the Potency was “inactive”. With O=C1CC(=O)Nc2cc(S(=O)(=O)N3CCN(c4cccc(C(F)(F)F)c4)CC3)ccc2N1 the Potency was inconclusive: 18.3 µM [inhibitor, single point]. For COc1ccc(C2SCC(=O)N2c2ccc(OC)cc2)cc1 (centres undefined), the Potency was “inactive”. With CS(=O)(=O)N(CC(=O)N1CCCCCC1)c1cccc(Br)c1 the Potency was “inactive”. With C=CCn1c(=NC(=O)c2ccco2)sc2cc(C(=O)OCC)ccc21 the Potency was “inactive”. In the case of COc1ccccc1Nc1nnc(SCC(=O)NC2CCCC2)s1, the Potency is reported as “inactive”. In the case of COc1ccc(-c2c(-c3ccc(O)cc3O)n[nH]c2C(F)(F)F)cc1, the Potency is reported as “inactive”. In the case of O=S(=O)(c1cccc(Br)c1)N1CCN(CCc2ccccc2)CC1, the Potency is reported as inconclusive: 1.16 µM [inhibitor, single point]. With CCOC(=O)c1cc(NC(=O)Cc2ccc(S(=O)(=O)N3CCOCC3)s2)cc(C(=O)OCC)c1 the Potency was active: 6.51 µM. For N/C(=N\OC(=O)c1ccccc1F)c1cccc([N+](=O)[O-])c1, the Potency was inconclusive: 10.3 µM [activator, partial curve]. For COc1cccc(CN2c3ccc(Br)cc3C(=O)CS2(=O)=O)c1, the Potency was inconclusive: 2.59 µM [activator, partial curve]. In the case of O=C1CCc2cc(S(=O)(=O)N3CCCCC3)cc3c2N1CCC3, the Potency is reported as inconclusive: 11.6 µM [activator, partial curve]. In the case of CCN1CCN(c2nc(Nc3cccc(C)c3)nc(N)c2[N+](=O)[O-])CC1, the Potency is reported as inconclusive: 25.9 µM [inhibitor, single point]. In the case of Cc1cccc(NC(=O)CNC(=O)c2cccc(S(=O)(=O)NCc3cccs3)c2)c1C, the Potency is reported as “inactive”. With CCOC(=O)c1csc(N)n1 the Potency was inconclusive: 16.4 µM [activator, partial curve]. With Cc1ccc(NC(=O)c2ccc(Nc3c([N+](=O)[O-])cc([N+](=O)[O-])cc3[N+](=O)[O-])cc2)cc1 the Potency was active: 7.31 µM. With CCn1c(SCC(=O)NCc2ccc3c(c2)OCO3)nnc1-c1c[nH]c2ccccc12 the Potency was inconclusive: 16.4 µM [inhibitor, single point]. For C=CCN1C(=O)/C(=N/n2cnnc2)c2ccccc21, the Potency was inconclusive: 29.1 µM [activator, single point]. In the case of CC1CN(S(=O)(=O)c2cccc(-c3cn4cccnc4n3)c2)CC(C)O1 (centres undefined), the Potency is reported as “inactive”. In the case of Cc1cc(NC(=S)N(Cc2ccc(Cl)cc2)Cc2ccc(C(=O)O)cc2)ccc1Cl, the Potency is reported as “inactive”. With COc1ccc(N2CCN(CCCn3c(=S)[nH]c4ncccc4c3=O)CC2)cc1 the Potency was inconclusive: 18.4 µM [activator, partial curve]. With Cc1c(/C=C/C(=O)c2ccc(C(C)C)cc2)cnn1C the Potency was inconclusive: 13 µM [activator, partial curve, poor fit]. For Cc1ccc(S(=O)(=O)N2CCC(NC(=O)c3cccc(C)c3)CC2)cc1, the Potency was “inactive”. With CCOC(=O)[C@H]1[C@H]2COc3ccc(Cl)cc3[C@@H]2N2C(=O)CN(Cc3ccc(C)cc3)C(=O)[C@@]12C the Potency was inconclusive: 29.1 µM [inhibitor, single point]. With CCCCc1nc2cc(C(=O)NCc3ccccn3)ccc2o1 the Potency was inconclusive: 13 µM [activator, single point]. In the case of COc1cccc(C2CC(c3c(-c4ccccc4)c4cc(Cl)ccc4[nH]c3=O)=NN2S(C)(=O)=O)c1OC (centres undefined), the Potency is reported as active: 23.1 µM. With CN1C(=O)C(O)(CC(=O)/C=C/c2ccco2)c2ccccc21 (centres undefined) the Potency was “inactive”. For CCOC(=O)c1c(-c2ccc(C)s2)csc1NC(=O)c1cccs1, the Potency was inconclusive: 18.4 µM [activator, single point]. In the case of CCCCN(C(=O)CSc1n[nH]c(-c2ccc(C)cc2)n1)c1c(N)n(CCCC)c(=O)[nH]c1=O, the Potency is reported as “inactive”. With CC1(C)Cc2nc3sc4c(SCC(=O)NCc5ccco5)ncnc4c3cc2CO1 the Potency was inconclusive: 29.1 µM [inhibitor, single point]. In the case of CC(C(=O)NCCCn1ccnc1)(c1ccccc1)c1ccccc1, the Potency is reported as inconclusive: 14.6 µM [inhibitor, single point]. For O=C(NCCOc1ccccc1Cl)c1cc(F)c(F)cc1Cl, the Potency was inconclusive: 16.4 µM [activator, partial curve]. In the case of CCn1c(SC(C)C)nnc1-c1cc(-c2ccccc2)sc1N, the Potency is reported as inconclusive: 29.1 µM [inhibitor, single point]. For Cc1[nH]c(=O)nc2c1CCC2, the Potency was “inactive”. In the case of CCCCn1c2c(c(=N)c3c1CCC3)CCC2, the Potency is reported as active: 1.64 µM. In the case of CN(C)c1ccc(/C=N/N=C2/NC(=O)/C(=C/c3ccc([N+](=O)[O-])cc3)S2)cc1, the Potency is reported as inconclusive: 2.24 µM [activator, partial curve, poor fit]. For Cc1ccc(CSCC2Nc3ccc(C(=O)N4CCN(c5cccc(C)c5)C(C)C4)cc3NC2=O)cc1 (centres undefined), the Potency was “inactive”. With CSc1ccccc1NC(=O)CN(C)C(C)C(=O)NC(=O)NC1CCCCC1 (centres undefined) the Potency was inconclusive: 16.4 µM [inhibitor, partial curve, poor fit]. In the case of NS(=O)(=O)c1ccc(CCNC(=O)c2cccc3ccccc23)cc1, the Potency is reported as “inactive”. For CCOC(=O)C1CCCN(C(=O)CSc2ccccc2)C1 (centres undefined), the Potency was inconclusive: 20.6 µM [activator, single point]. In the case of CC(C)OCCCNC(=S)Nc1ccc(S(N)(=O)=O)cc1, the Potency is reported as “inactive”. With Cc1cccc(NC(=O)c2cc(-c3ccccn3)nc3ccccc23)c1C the Potency was inconclusive: 16.4 µM [inhibitor, partial curve]. In the case of Cc1ccccc1OCc1nc2ccccc2c(=O)n1/N=C/c1cn[nH]c1-c1ccc(Br)cc1, the Potency is reported as active: 6.51 µM. With Cc1ccc(C)c(OCC(=O)Nc2ccccc2N2CCCC2)c1 the Potency was “inactive”. With COc1ccc2c(c1)sc1nc(-c3ccccc3)cn12 the Potency was inconclusive: 0.0206 µM [activator, full curve, poor fit]. In the case of c1cncc(-c2nc(NCc3ccc4c(c3)OCO4)c3ccccc3n2)c1, the Potency is reported as active: 20.6 µM. For Cc1ccc(OCCN2CCCC2)cc1, the Potency was “inactive”. In the case of O=C(Nc1ccccc1)c1ccc(Nc2c([N+](=O)[O-])cc([N+](=O)[O-])c3ccccc23)cc1, the Potency is reported as inconclusive: 14.6 µM [inhibitor, partial curve, poor fit]. With O=C(Nc1ccc([N+](=O)[O-])cc1)C1CC1(c1ccccc1)c1ccccc1 (centres undefined) the Potency was inconclusive: 23.1 µM [inhibitor, single point]. With CC(CCN1CCN(c2ccc(F)cc2)CC1)c1ccccc1 (centres undefined) the Potency was “inactive”. With COc1ccc(OC)c(NC(=O)c2c3c(nc4ccccc24)CCC3)c1 the Potency was “inactive”. For O=C(Nc1c(C(=O)O)[nH]c2ccc(F)cc12)c1cccc(C(F)(F)F)c1, the Potency was inconclusive: 20.6 µM [activator, single point]. In the case of Cc1ccc(C)c(NC(=S)N(C)CCO)c1, the Potency is reported as “inactive”. In the case of O=C(NCC1CCCO1)c1cc(-c2ccc(Cl)cc2Cl)on1 (centres undefined), the Potency is reported as inconclusive: 20 µM [activator, partial curve, poor fit]. In the case of O=C(CSc1nc2nn(-c3ccccc3)c(=O)c-2c2n1CCCCC2)Nc1ccccc1[N+](=O)[O-], the Potency is reported as inconclusive: 29.1 µM [inhibitor, single point]. With Cc1ccc(/C=N/NC(=O)c2ccc(N(C)S(=O)(=O)c3ccccc3)cc2)cc1 the Potency was inconclusive: 29.1 µM [inhibitor, single point]. With CCOc1ccc(NC(=O)CSc2nnc(C)n2CC)cc1 the Potency was “inactive”.
